Data as given in PubChem BioAssay AID686937 (Drosophila RNAi Screening Center, 2013).
Purpose: 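Knock-downs that reduce output of a secreted reporter enzyme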 (primary screen). Cell system: Drosophila S2 cells expressing secreted horseradish peroxidase. Knock-down reagent: long dsRNA against Drosophila genes. Time to read-out: about 5.5 days (5 days dsRNA, then 12 h reporter induction). Challenge: reporter expression induced after 5 days of dsRNA, read 12 h later; inducer not stated. Measurement: 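After 5 days of dsRNA and 12 h of reporter induction, medium peroxidase read by chemiluminescence and scored as per-plate z-score; higher values mean more reporter released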. Direction: z-score: higher = more reporter secreted into medium.
In all, the deposit lists about 23,000 reagents; shown is a random part of those with a known target gene and a result. 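Reduced-secretion tags in replicate 1 do not always agree with the z-scores; no criterion for assigning the tags was given.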 Names joined by + are all predicted targets of the reagent. Not all columns of the deposit are shown. Reagent sequences are not shown. Not stated in the record: the amount of reagent.

CaMKI (Calcium/calmodulin-dependent protein kinase I) [DRSC17162] — z-score, replicate 1 = 0.21
CG9344 [DRSC04541] — z-score, replicate 1 = -0.26
CG7386 [DRSC10832] — z-score, replicate 1 = 0.52
Ncc69 (sodium chloride cotransporter 69) [DRSC10412] — z-score, replicate 1 = 0.08
Ncc69 (sodium chloride cotransporter 69) [DRSC10413] — z-score, replicate 1 = 0.27
Nrx-IV (Neurexin IV) [DRSC11238] — z-score, replicate 1 = 0.34
CG11586 [DRSC08203] — z-score, replicate 1 = 0.32
Mvk + CG33672 + spt4 [DRSC05356] — z-score, replicate 1 = -9.37; phenotype, replicate 1 = reduced secretion
Mvk + CG33672 + spt4 [DRSC06628] — z-score, replicate 1 = 0.31
CG12121 [DRSC17816] — z-score, replicate 1 = 0.49
Skp2 + CG1103 [DRSC12160] — z-score, replicate 1 = 0.13
Skp2 + CG1103 [DRSC22356] — z-score, replicate 1 = -0.05
CycC (Cyclin C) [DRSC16619] — z-score, replicate 1 = 0.3
Gem2 (Gemin 2) [DRSC09721] — z-score, replicate 1 = -0.03
CG7179 [DRSC03020] — z-score, replicate 1 = 0.67
CG1552 [DRSC19665] — z-score, replicate 1 = 0.37
Lsd-2 (Lipid storage droplet-2) [DRSC20143] — z-score, replicate 1 = -5.8; phenotype, replicate 1 = reduced secretion
CG32718 [DRSC17538] — z-score, replicate 1 = 0.49
CG1504 [DRSC20513] — z-score, replicate 1 = -0.31
CG10486 [DRSC09735] — z-score, replicate 1 = 0.58
Prosbeta2R2 (Proteasome beta2 subunit-related 2) [DRSC12193] — z-score, replicate 1 = 0.29
Elys [DRSC19571] — z-score, replicate 1 = 0.21
CG13544 [DRSC04186] — z-score, replicate 1 = 0.07
tut (tumorous testis) [DRSC08909] — z-score, replicate 1 = 0.45
CG30091 [DRSC21809] — z-score, replicate 1 = -0.8
ind (intermediate neuroblasts defective) [DRSC11355] — z-score, replicate 1 = -1.1
Sar1 (Secretion-associated Ras-related 1) [DRSC17049] — z-score, replicate 1 = -3.16; phenotype, replicate 1 = reduced secretion
Sar1 (Secretion-associated Ras-related 1) [DRSC22115] — z-score, replicate 1 = -0.13
brk (brinker) [DRSC18745] — z-score, replicate 1 = -1
CG6435 [DRSC06987] — z-score, replicate 1 = 0.62
Gr85a (Gustatory receptor 85a) [DRSC12760] — z-score, replicate 1 = 0.14
alpha-Man-IIa (alpha-Mannosidase class II a) [DRSC15393] — z-score, replicate 1 = 0
CG17778 [DRSC18504] — z-score, replicate 1 = -0.9
sotv + CG10731 [DRSC05930] — z-score, replicate 1 = 0.39
sotv + CG10731 [DRSC05997] — z-score, replicate 1 = 0.36
ari-1 (ariadne 1) [DRSC20308] — z-score, replicate 1 = 0.28
ari-1 (ariadne 1) [DRSC21603] — z-score, replicate 1 = -0.65; phenotype, replicate 1 = reduced secretion
cu (curled) [DRSC15643] — z-score, replicate 1 = 0.42
cu (curled) [DRSC15648] — z-score, replicate 1 = 0.62
LRP1 (LDL receptor protein 1) [DRSC07238] — z-score, replicate 1 = 0.05
CG17839 [DRSC10290] — z-score, replicate 1 = 0.03
CG17839 [DRSC10291] — z-score, replicate 1 = 0.34
CG6966 [DRSC16156] — z-score, replicate 1 = -0.07
CG14664 [DRSC12250] — z-score, replicate 1 = 0.39
ClpP (Caseinolytic protease proteolytic subunit) [DRSC02806] — z-score, replicate 1 = 0.24
CCHa1 (CCHamide-1) [DRSC14821] — z-score, replicate 1 = -4.72
CG31606 [DRSC01012] — z-score, replicate 1 = 0.23
CG8191 [DRSC20091] — z-score, replicate 1 = 0.33
MYPT-75D (Myosin phosphatase targeting subunit 75D) [DRSC10743] — z-score, replicate 1 = 0.34
CG33758 [DRSC05158] — z-score, replicate 1 = -0.08
resilin [DRSC05627] — z-score, replicate 1 = 0.57
resilin [DRSC06595] — z-score, replicate 1 = 0.48

Part of the list above, limited to “z-score, replicate 1”:
Sar1 (Secretion-associated Ras-related 1) [DRSC17049]: -3.16
Sar1 (Secretion-associated Ras-related 1) [DRSC22115]: -0.13
brk (brinker) [DRSC18745]: -1
